The chains behind the UniProt entries cited, without tags or fusion partners. Where a name states a change or a piece, a line headed by the entry shows the natural chain unless it says otherwise.
UniProt Q56UQ5: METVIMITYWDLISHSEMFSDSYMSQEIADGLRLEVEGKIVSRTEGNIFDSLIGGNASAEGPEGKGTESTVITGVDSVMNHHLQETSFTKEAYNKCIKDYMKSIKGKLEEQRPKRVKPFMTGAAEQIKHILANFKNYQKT
UniProt Q5CZA5: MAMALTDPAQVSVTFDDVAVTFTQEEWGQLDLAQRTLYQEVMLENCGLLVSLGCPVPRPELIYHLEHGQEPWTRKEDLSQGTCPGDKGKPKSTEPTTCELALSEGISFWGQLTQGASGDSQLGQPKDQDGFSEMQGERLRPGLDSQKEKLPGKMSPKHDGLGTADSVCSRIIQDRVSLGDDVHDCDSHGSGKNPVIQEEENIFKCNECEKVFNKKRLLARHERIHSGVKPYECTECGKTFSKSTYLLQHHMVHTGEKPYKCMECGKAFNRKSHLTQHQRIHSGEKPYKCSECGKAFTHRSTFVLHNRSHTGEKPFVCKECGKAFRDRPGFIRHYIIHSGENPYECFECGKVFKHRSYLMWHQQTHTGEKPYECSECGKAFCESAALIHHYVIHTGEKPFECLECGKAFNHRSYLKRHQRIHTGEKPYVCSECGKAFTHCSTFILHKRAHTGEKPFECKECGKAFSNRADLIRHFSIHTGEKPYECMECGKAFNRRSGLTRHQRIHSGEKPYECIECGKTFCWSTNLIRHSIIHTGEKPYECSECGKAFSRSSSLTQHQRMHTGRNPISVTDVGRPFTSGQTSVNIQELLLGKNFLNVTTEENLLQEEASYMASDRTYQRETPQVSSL
UniProt Q5BKZ1: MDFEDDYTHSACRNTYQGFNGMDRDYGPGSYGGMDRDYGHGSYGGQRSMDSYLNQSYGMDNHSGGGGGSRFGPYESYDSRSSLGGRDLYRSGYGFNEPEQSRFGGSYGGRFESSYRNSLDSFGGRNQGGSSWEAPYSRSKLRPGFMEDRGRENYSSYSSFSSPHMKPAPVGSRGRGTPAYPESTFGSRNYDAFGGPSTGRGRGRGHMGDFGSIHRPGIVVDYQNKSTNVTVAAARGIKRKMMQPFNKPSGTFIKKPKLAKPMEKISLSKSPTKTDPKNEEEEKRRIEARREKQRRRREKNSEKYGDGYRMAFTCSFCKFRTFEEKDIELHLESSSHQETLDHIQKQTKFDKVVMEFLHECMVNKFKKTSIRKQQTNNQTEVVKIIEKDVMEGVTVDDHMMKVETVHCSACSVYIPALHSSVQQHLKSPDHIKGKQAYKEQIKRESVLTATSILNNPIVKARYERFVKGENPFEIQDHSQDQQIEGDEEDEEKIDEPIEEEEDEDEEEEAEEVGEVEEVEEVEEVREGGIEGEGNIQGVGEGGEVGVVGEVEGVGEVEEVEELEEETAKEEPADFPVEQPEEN
UniProt Q5PSV4: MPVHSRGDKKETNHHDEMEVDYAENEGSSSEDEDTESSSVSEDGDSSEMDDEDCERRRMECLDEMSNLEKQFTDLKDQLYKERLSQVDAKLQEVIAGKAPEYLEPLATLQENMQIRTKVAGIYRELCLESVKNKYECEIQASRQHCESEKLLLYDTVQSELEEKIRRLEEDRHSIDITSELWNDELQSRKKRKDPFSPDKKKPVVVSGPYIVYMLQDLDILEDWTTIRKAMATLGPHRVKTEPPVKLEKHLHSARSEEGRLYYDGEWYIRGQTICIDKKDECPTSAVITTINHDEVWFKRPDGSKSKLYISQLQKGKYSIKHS
UniProt Q5T7W0: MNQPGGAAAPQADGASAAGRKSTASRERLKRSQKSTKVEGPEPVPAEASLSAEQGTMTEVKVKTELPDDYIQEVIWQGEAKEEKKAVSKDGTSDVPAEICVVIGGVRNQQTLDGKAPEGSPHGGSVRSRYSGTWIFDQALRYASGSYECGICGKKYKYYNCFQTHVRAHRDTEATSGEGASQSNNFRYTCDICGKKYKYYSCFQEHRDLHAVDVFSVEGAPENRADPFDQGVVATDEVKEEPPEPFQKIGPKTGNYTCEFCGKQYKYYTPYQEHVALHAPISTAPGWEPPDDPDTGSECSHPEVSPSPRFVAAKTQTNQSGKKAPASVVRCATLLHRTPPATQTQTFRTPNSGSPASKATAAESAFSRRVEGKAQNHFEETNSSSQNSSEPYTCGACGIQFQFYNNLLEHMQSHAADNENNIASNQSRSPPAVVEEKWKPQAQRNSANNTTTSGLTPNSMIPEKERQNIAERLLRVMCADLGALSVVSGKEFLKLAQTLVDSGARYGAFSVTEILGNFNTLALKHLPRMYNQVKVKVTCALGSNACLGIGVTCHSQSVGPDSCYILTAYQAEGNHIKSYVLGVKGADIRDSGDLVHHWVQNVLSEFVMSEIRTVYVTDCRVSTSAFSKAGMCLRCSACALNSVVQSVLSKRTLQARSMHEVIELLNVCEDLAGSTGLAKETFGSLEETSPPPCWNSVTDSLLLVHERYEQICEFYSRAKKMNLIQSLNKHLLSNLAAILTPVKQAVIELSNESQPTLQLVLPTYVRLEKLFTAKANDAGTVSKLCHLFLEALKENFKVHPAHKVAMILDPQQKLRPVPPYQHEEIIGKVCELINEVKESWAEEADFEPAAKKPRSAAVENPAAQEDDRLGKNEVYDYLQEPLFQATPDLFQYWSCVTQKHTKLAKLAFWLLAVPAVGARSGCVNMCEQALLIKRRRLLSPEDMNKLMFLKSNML
UniProt Q5VT06: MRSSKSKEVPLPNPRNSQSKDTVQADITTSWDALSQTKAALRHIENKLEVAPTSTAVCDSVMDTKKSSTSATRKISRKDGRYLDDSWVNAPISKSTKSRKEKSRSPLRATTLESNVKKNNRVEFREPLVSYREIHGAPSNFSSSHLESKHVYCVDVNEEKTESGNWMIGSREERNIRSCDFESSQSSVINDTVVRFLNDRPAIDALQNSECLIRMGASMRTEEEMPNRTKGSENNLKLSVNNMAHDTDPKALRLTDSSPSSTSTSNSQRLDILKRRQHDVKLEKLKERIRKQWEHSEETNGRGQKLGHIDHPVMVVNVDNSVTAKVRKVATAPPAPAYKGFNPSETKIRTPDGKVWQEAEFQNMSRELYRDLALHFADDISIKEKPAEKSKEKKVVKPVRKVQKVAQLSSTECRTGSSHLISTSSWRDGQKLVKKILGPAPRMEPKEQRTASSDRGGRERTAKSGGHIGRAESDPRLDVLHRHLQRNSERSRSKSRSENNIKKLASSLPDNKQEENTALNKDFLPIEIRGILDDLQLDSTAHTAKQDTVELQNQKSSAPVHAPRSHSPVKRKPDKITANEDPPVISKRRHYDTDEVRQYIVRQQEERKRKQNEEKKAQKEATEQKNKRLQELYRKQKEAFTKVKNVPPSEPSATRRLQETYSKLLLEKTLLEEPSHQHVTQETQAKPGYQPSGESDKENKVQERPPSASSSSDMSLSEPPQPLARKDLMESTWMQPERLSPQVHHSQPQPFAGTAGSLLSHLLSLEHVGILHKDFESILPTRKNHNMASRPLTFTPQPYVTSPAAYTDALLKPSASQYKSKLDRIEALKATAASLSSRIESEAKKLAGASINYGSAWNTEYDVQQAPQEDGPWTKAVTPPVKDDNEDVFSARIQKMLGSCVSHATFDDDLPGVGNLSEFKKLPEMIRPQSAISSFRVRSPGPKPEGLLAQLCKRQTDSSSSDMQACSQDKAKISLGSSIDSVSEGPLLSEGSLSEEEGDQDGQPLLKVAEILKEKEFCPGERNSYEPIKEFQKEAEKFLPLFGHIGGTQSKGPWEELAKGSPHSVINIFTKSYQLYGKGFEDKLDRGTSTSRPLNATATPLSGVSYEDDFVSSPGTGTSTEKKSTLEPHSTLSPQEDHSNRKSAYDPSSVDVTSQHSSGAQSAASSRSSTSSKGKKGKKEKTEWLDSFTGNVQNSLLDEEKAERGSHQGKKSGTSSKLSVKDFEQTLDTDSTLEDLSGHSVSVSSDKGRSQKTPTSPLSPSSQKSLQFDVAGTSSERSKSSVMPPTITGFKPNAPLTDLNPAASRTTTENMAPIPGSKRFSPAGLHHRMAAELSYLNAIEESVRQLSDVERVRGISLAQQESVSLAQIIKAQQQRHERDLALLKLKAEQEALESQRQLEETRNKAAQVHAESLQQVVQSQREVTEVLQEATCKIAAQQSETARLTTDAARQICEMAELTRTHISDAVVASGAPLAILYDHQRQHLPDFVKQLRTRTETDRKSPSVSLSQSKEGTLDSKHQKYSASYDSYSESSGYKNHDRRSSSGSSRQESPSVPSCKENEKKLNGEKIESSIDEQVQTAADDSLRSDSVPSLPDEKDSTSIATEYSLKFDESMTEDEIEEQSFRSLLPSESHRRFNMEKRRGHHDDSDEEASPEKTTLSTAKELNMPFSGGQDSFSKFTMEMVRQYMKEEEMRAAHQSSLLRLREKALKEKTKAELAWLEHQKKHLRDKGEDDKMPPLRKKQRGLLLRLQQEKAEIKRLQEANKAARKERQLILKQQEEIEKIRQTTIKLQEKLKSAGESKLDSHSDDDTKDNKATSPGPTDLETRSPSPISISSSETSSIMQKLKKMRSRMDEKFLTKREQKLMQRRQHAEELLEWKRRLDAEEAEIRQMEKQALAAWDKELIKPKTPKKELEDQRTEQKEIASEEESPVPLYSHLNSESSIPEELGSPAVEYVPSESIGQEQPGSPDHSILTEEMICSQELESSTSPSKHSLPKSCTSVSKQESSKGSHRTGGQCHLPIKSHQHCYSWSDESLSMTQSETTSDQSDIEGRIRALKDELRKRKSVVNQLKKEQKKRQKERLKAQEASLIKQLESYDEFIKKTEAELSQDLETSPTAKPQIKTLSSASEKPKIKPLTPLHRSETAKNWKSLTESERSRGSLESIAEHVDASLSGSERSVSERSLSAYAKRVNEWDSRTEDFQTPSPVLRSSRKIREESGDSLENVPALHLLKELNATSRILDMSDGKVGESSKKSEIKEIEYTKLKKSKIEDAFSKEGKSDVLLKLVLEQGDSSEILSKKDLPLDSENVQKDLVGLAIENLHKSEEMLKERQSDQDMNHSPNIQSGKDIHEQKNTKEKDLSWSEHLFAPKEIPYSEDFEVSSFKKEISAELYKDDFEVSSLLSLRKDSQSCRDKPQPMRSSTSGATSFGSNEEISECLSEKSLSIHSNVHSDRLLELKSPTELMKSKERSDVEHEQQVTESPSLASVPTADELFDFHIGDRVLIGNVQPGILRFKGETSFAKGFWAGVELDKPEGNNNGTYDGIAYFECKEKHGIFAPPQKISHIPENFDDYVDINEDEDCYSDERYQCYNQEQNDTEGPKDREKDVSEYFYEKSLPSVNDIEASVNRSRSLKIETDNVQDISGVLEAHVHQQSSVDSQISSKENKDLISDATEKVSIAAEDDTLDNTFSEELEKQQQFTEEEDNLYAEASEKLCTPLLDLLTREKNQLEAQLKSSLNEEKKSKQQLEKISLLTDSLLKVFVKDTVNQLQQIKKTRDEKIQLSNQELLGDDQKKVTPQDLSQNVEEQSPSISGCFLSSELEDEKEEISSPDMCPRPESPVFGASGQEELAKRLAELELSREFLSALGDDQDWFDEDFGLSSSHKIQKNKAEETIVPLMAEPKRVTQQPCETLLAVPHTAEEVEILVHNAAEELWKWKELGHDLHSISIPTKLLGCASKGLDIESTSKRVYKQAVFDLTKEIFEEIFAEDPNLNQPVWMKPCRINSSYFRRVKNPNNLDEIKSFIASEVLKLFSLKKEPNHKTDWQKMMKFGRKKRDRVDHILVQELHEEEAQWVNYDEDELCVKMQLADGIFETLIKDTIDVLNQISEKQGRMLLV
UniProt Q49AR2: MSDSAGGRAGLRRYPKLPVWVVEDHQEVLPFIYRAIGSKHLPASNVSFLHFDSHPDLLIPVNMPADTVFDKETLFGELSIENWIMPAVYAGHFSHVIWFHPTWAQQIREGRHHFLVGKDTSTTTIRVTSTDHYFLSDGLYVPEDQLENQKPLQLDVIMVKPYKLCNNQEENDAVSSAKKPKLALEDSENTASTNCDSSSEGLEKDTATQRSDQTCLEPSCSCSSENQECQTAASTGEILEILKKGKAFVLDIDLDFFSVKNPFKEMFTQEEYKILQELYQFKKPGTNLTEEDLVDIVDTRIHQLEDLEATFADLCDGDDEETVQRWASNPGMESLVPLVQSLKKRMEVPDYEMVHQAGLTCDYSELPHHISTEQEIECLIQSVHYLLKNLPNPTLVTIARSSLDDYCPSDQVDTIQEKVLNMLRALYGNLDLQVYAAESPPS

Some of the results follow. Small differences around the control level are noise.
Each target was assayed with Cc1nc(Nc2ncc(C(=O)Nc3c(C)cccc3Cl)s2)cc(N2CCN(CCO)CC2)n1 [dasatinib] (assay: log2 fold change of tryptic peptide abundance, ligand vs vehicle (limited proteolysis) (log2 ratio); higher = more trypsin-susceptible (destabilized)). Conditions: ligand concentration: 5 uM; sample: K562 cleared lysate.
Target “UniProt Q56UQ5 (peptide sequence: VKPFMTGAAEQIK, peptide start residue: 111)” has a log2 fold change of 0.125.
With “UniProt Q5CZA5 (peptide sequence: HDGLGTADSVCSR, peptide start residue: 158)” the log2 fold change was 0.411.
In the case of “ZNF326 (peptide sequence: SPTKTDPKNEEEEK, peptide start residue: 270) (UniProt Q5BKZ1)”, the log2 fold change is reported as 0.417.
Target “BRMS1L (peptide sequence: VKTEPPVKLEK, peptide start residue: 239) (UniProt Q5PSV4)” has a log2 fold change of 0.0241.
Work on “UniProt Q5JNZ5 (peptide sequence: PAGAAPRPPPKPM, peptide start residue: 103)” yielded a log2 fold change of 0.377.
“ZNF618 (peptide sequence: TPNSGSPASK, peptide start residue: 349) (UniProt Q5T7W0)” showed a log2 fold change of 0.761.
Target “UniProt Q5T6F0 (peptide sequence: GWLNHDETWR, peptide start residue: 399)” has a log2 fold change of 0.253.
“CEP350 (peptide sequence: GHHDDSDEEASPEK, peptide start residue: 1643) (UniProt Q5VT06)” gave a log2 fold change of 1.07.
With “C5orf22 (peptide sequence: ILQELYQFK, peptide start residue: 274) (UniProt Q49AR2)” the log2 fold change was 0.0232.
